“And” between values parts separate entries of the source, which are not always exact repeats. Identical values can stand only once. In all, about 310,000 compounds went through this assay and about 17,000 (5.5%) were called active. The shares of active, inactive and inconclusive entries below differ from those in the screen. Calls come from the whole dose curve; as a rule, active = well fitted inhibition curve with a large enough effect; inconclusive = small, poorly fitted or top-dose-only effect, or effect the other way; inactive = no such curve, though single readings can be large or run the other way. Potencies beside an inconclusive call are fits to weak or partial responses and may not hold up.
Biological target: Nuclear receptor ROR-gamma (Mus musculus) (UniProt P51450)
Assay: qHTS for inhibitors of ROR gamma transcriptional activity; note: nearly all actives have a fitted effect of over 60% in size
Conditions: Drosophila S2 Gal4-RORgamma UAS-luciferase reporter, 20 h; series mostly up to 53.6 µM
Procedure, shortened: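 Stably transfected Drosophila Schneider cells are the test system, with ROR gamma fused to Gal4 and luciferase under UAS control; luminescence is read after 20 hr of 700 uM copper sulfate induction at ambient temperature.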
Potency is the fitted concentration of half-maximal effect.

The chains behind the UniProt entries cited, without tags or fusion partners. Where a name states a change or a piece, a line headed by the entry shows the natural chain unless it says otherwise.
UniProt P51450: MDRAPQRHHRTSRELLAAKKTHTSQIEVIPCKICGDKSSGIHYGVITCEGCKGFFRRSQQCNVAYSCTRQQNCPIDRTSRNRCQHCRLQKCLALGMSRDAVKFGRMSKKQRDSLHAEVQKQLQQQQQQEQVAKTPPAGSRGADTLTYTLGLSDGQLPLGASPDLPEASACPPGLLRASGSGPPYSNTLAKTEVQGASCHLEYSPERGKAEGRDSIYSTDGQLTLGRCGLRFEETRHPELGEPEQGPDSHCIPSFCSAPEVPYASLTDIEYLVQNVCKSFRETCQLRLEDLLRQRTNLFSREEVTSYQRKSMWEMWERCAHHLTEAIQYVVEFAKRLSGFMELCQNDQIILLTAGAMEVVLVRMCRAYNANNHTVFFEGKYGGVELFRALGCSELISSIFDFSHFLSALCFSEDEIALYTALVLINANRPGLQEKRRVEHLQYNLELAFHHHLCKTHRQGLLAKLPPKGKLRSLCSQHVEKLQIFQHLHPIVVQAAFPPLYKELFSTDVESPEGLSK

SMILES	Potency
COCCn1nnnc1C(CC(C)C)N1CCN(c2nc3ccccc3s2)CC1 (stereo not given)	inconclusive: 12.6 µM [activator, single point]
O=C1c2ccccc2NC2(CCCCC2)N1N=C1CCCCC1	inactive
COc1ccc(/C=C/C(=O)c2ccc[nH]2)c(OC)c1OC	inconclusive: 5.62 µM [activator, single point]
O=C(NCc1nc(-c2ccccc2)no1)c1cccs1	inconclusive: 22.4 µM [activator, single point]
O=C(CCl)N=c1sccn1Cc1ccc(Cl)cc1Cl	inconclusive: 20 µM [inhibitor, single point]
O=S(=O)(c1cccc2c(S(=O)(=O)N3CCCC3)cccc12)N1CCCC1	inconclusive: 12.6 µM [inhibitor, single point]
Cn1cc(CCC(=O)N2CCCC(C(=O)c3ccc(C(C)(C)C)cc3)C2)cn1 (stereo not given)	inconclusive: 10 µM [inhibitor, single point]
COc1ccc(CCN2C(=O)CC(Cc3ccccc3)C2=O)cc1OC (stereo not given)	inactive
COc1ccc(CN2CCN(C(=O)C3CCN(S(=O)(=O)c4cccs4)CC3)CC2)c(OC)c1OC	inconclusive: 15.8 µM [activator, single point]
CC1CCN(c2ncnc3ccccc23)CC1	inconclusive: 12.6 µM [activator, partial curve]
CC(=O)Oc1ccc(Nc2ccccc2)cc1	inconclusive: 20 µM [inhibitor, partial curve]
O=C(N/N=C/c1ccccc1O)c1ccc2c(c1)OCO2	active: 0.562 µM
COc1cc(C(=O)N/N=C/c2sc(N3CCOCC3)nc2-c2ccccc2)cc(OC)c1OC	inconclusive: 35.5 µM [inhibitor, single point]
FC(F)(F)c1cc(NC(=S)NC(c2ccccc2)c2ccccc2)cc(C(F)(F)F)c1	inactive
COCCCNC(=O)/C(C#N)=C/c1cccc(NC(=O)c2ccccc2Cl)c1	inconclusive: 28.2 µM [activator, single point]
Cc1ccc(S(=O)(=O)NNC(=O)c2ccncc2)cc1	inactive
COc1ccc(C(CNC(=O)c2ccc(OCC3CCCO3)cc2)N2CCOCC2)cc1 (stereo not given)	inconclusive: 0.794 µM [activator, full curve, poor fit]
COc1ccc(CNC(=O)C(c2ccncc2)N(C(=O)Cc2cccs2)c2ccc(C)cc2)cc1 (stereo not given)	inconclusive: 15.8 µM [activator, single point]
S=C1NC[C@H](Cc2cccc3ccccc23)N1CC1CCCCC1	active: 0.708 µM
CCc1cccc(C)c1NC(=O)COC(=O)c1c2c(nc3ccccc13)/C(=C\c1cccs1)CCC2	inconclusive: 3.16 µM [activator, full curve]
COc1ccc(NC(C)=O)cc1S(=O)(=O)Nc1ccc(OCc2ccccc2)cc1	inconclusive: 35.5 µM [activator, single point]
CC1CCCN(S(=O)(=O)c2ccc(C(=O)Nc3nnc(C4CC4)o3)cc2)C1 (stereo not given)	active: 0.224 µM
N#CCSc1nnc(SCC#N)s1	inactive

SMILES	Potency
CC(C)Nc1nc(NC(C)C)nc(OCCOC(=O)Nc2ccccc2)n1	inconclusive: 5.01 µM [activator, partial curve]
Cc1nn2c(-c3cccc(NC(=O)CSc4nc5ccccc5o4)c3)nnc2c2ccccc12	inconclusive: 25.1 µM [inhibitor, single point]
Cc1ccc2occ(/C=N/NC(=O)c3ccccc3C)c(=O)c2c1	inconclusive: 2.51 µM [inhibitor, single point]
Fc1ccc(NC(=S)Nc2ccc(Cl)cc2Cl)cc1	inconclusive: 20 µM [inhibitor, single point]
CN(C)c1ccc(/C=N/NC(=O)c2ccnn2C)cc1	inconclusive: 2.51 µM [inhibitor, single point]
Cc1ccnc(NC(=O)COc2ccccc2[N+](=O)[O-])c1	active: 11.2 µM
Cc1ccc(Nc2nnc(SCC(=O)NCCN3C(=O)CSC3=O)s2)cc1C	inconclusive: 1.41 µM [inhibitor, partial curve]
CCCC(=O)N(C)c1nnc(-c2ccc(OC)cc2)s1	inconclusive: 4.47 µM [activator, single point]
CC(=O)N1CCN(c2ccc(NC(=O)c3ccc(C)cc3)cc2)CC1	inactive
Cc1ccc(C(=O)N/C(=C/c2ccc(N(C)C)cc2)C(=O)NCC2CCCO2)cc1 (stereo not given)	inconclusive: 35.5 µM [activator, single point]
Cc1ccccc1OCC(=O)N/N=C/C=C/c1ccccc1	inconclusive: 22.4 µM [inhibitor, single point]
CC(=Nc1ccccc1N)c1c(C)cc(=O)n(O)c1O	inconclusive: 7.08 µM [inhibitor, full curve, poor fit] and inconclusive: 11.2 µM [inhibitor, partial curve, poor fit]
Cc1cc(NC(c2cccnc2)c2ccc3cccnc3c2O)no1 (stereo not given)	active: 3.98 µM
COc1ccc(S(=O)(=O)Nc2nc3ccccc3s2)cc1OC	inconclusive: 4.47 µM [activator, partial curve, poor fit]
CCNS(=O)(=O)c1ccc(CCC(=O)NC2CCCC2)cc1	inactive
O=C1CCCC/C1=C/Nc1ccc(S(=O)(=O)Nc2ncccn2)cc1	inconclusive: 35.5 µM [inhibitor, single point]
CC(C)CN(CC(C)C)C(=O)Cc1coc2ccc3ccccc3c12	inconclusive: 35.5 µM [inhibitor, single point]
COc1ccc(N2C(=O)/C(=C/c3cccs3)NC2=S)cc1	active: 10 µM
S=c1nc(C2CC2)n(-c2ccccc2)[nH]1	active: 7.94 µM
CCOC(=O)Cc1[nH]nc2c1C(C1C=CCCC1)C(C#N)=C(N)O2 (stereo not given)	inactive
CN=C1C=CC(=C(c2ccc(N(C)C)cc2)c2ccc(N(C)C)cc2)C=C1	inconclusive: 5.01 µM [inhibitor, full curve, poor fit]
CCCCn1c(SCc2cccnc2)nc2c1c(=O)n(C)c(=O)n2C	inconclusive: 35.5 µM [activator, single point]

From PubChem BioAssay AID2551 (National Center for Advancing Translational Sciences (NCATS), 2010)
